Measured values from paper PMC12400406 (Organic Letters, 2025).
Results are given in words; binding and its absence hold for the method and conditions named.

Molecular target: CmnI (Saccharothrix mutabilis subsp. capreolus) (UniProt A6YEI0)
Test: SEC; CmnI alone; oligomeric state; both purified

B1: CmnI (enzyme, Saccharothrix mutabilis subsp. capreolus, UniProt A6YEI0 1-548, looked up)
chain: MTTETPATTGAPATTGAPAPPGRAEIVAAVLPVFAEVLDAPDLTPDSDFFVHGGNSLLAIRVAGRVGRRLGRQVPPAGVLKHPTPDLLAAHLEEEFRGGGAPPIPAPRAGAEADRRPSTAQERVWLLHQLDPDRLDHLVTVALDVAGTVDPAAFTAAWTAVVRRHEALRSRFVKADDDRVAVVVDAEAAPEISVLDLARFPAPVRDRLAEERVRLLRTTPIRLDTGPLARFALLRLADRRYRIELAVHHIVCDGWSLDTLLADFLDAYGRALAGRSPALPPPAVGFADYVAWERDVESSRWPDMAVRLARRFADRPADLPLPVDPVDVPAHEDGDDVTVHAPPGLAAAVERARTSFGHTALTFHLTALGVLLARITGVDDLVVAVPVAGRAQTEHEDLVGLFVNTALARVRLGGTSDVRVLLERNRDEVDELVDCQTFPFDRLVDLLGARRAGTRVPLARVSLAVQNFDDPGTPAPELGFTWQFRDPPERQSKFDLAFTVSDTDGLRLTVTYRPSLFRRATVAAWAGQYLVALEHVVRGVADPEGSAR
notes: CmnI, A domain-less NRPS module 3 (T-C didomain) of capreomycin biosynthesis, Saccharothrix mutabilis subsp. capreolus; calculated molecular weight of the apo-form construct 61 484.72 Da; also called A domain-less NRPS module CmnI; source: purified
With B1 the binding was “no binding”.
